Data: PMC9515611

Target: T1, HA-DLC1 (deleted in liver cancer-1) (human) (UniProt Q96QB1)
T1 sequence: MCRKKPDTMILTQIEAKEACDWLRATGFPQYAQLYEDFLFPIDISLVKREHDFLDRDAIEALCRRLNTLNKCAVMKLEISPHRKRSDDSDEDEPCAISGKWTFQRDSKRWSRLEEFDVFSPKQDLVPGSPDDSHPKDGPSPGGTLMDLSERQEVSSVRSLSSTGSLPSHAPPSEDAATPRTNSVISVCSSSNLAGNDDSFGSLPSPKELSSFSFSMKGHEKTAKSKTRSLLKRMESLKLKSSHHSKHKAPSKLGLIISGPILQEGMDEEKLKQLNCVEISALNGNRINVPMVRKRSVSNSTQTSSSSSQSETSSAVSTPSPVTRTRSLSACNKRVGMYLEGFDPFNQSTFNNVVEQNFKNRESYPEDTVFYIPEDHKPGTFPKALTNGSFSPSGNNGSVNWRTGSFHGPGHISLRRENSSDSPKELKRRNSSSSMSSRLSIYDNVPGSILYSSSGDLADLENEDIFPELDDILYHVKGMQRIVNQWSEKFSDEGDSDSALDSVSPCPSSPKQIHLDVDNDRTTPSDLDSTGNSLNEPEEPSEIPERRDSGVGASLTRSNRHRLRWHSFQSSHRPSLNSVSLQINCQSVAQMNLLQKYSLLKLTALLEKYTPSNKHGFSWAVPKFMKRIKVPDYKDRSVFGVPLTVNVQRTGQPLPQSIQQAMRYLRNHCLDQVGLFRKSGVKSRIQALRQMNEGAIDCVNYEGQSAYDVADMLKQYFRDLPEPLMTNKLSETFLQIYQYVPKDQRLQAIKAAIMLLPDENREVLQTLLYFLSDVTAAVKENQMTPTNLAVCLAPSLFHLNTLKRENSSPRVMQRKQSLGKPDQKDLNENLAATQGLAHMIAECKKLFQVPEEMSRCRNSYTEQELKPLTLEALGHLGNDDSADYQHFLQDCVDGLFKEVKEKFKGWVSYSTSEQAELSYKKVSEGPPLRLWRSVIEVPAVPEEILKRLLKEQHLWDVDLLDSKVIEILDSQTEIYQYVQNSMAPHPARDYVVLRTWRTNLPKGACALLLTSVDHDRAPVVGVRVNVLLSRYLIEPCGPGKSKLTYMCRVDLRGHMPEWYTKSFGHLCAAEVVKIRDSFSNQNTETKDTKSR
Test: co-IP; HEK-293T; Flag-tagged full-length GRP78 or truncations with HA-DLC1

binding: binds
Substance: GRP78 ΔN truncation (SBD domain), tagged with Flag (human) (domain or fragment)

These are yes or no findings as the source states them, for the method shown. In cells and extracts the contact can be indirect. Binding can be weak; no strength is given. Tags and fused reporters may be left off the sequences shown.
